In the supplement of paper PMC10849652:
The other results are listed elsewhere or left out.

The chains behind the UniProt entries cited, without tags or fusion partners. Where a name states a change or a piece, a line headed by the entry shows the natural chain unless it says otherwise.
UniProt Q9H633: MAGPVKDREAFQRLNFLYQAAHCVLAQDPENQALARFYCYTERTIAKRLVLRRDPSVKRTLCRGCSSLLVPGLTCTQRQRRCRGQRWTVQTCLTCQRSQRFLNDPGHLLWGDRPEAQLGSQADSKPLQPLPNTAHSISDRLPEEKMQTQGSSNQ
UniProt Q15349, whole entry, looked up: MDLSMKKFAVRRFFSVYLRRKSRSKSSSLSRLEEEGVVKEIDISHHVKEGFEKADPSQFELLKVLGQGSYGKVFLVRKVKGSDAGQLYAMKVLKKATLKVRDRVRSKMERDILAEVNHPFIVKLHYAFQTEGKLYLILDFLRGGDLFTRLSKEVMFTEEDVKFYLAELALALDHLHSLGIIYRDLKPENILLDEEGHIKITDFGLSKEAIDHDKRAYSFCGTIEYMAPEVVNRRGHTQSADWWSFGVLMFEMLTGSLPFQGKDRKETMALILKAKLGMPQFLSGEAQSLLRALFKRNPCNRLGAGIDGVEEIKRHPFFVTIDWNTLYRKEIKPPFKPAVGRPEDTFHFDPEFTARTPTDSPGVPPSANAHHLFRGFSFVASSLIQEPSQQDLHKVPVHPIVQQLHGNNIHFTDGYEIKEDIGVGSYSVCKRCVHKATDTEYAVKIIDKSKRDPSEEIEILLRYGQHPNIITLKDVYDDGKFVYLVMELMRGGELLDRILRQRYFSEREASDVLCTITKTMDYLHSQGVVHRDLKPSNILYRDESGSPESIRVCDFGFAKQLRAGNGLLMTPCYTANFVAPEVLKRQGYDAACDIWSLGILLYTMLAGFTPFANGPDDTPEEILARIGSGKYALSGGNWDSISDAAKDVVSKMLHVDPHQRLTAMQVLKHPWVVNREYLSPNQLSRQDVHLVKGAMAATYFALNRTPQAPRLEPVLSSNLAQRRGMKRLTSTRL
UniProt P27694, whole entry, looked up: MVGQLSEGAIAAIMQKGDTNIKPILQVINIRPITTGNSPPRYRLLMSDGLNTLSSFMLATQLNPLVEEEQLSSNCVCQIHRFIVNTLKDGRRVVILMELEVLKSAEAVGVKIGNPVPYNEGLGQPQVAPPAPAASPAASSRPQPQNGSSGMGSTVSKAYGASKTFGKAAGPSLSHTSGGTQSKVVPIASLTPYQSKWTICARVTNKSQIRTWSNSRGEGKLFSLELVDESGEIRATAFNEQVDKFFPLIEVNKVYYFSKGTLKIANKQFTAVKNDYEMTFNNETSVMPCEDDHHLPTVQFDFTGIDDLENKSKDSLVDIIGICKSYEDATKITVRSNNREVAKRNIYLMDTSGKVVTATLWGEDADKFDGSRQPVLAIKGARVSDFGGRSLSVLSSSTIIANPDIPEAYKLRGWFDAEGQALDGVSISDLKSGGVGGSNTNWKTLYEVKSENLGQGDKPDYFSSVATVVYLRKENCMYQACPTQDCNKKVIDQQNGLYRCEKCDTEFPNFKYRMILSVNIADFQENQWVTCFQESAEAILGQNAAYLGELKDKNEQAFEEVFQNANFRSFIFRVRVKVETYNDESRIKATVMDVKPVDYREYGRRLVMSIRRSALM
UniProt P05387, whole entry, looked up: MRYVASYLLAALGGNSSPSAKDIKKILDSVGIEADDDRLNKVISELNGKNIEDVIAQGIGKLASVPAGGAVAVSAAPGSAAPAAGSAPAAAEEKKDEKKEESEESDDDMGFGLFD
UniProt P49247: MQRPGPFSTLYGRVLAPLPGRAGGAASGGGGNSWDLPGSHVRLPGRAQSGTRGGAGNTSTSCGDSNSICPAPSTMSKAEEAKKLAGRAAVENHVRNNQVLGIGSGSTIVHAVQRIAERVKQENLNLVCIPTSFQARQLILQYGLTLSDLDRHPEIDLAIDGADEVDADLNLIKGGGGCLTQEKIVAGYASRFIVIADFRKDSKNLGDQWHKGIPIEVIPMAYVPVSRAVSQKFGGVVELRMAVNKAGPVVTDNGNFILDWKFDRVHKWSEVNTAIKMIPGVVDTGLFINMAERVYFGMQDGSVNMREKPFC

Key:
Assay in all cases: log2 fold change, soluble protein after heating vs DMSO (PISA); higher = thermal stabilisation; K562 cells, 10 uM, 30 min; active = over 0.2 and 3.5 SD of the protein, either way, in both replicates (recomputed)
[1] = compound: COC1=CC=C(C=C1)CN2C=CC3=C2C=C(C=C3)C(=O)NO
In short: (§1)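 Aliquots of K562 cells (2×10^6 cells/mL) treated with 10 μM compound for 30 min were heated for 3 min over 48°C-58°C. After pooling and extraction in PBS with 0.5% NP-40 at 4°C, soluble protein from a 21,000xg, 90 min spin was quantified by TMTpro 16plex LC-MS/MS with channel sums equalised. Thermal stability is expressed against control samples, from duplicates, as a log2 fold change.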

filanesib = compound: CON(C)C(=O)N1N=C(c2cc(F)ccc2F)S[C@@]1(CCCN)c1ccccc1 [filanesib]
In short: as §1

zotarolimus = compound: CO[C@H]1C[C@@H]2CC[C@@H](C)[C@@](O)(O2)C(=O)C(=O)N2CCCC[C@H]2C(=O)O[C@H]([C@H](C)C[C@@H]2CC[C@H](n3cnnn3)[C@H](OC)C2)CC(=O)[C@H](C)/C=C(\C)[C@@H](O)[C@@H](OC)C(=O)[C@H](C)C[C@H](C)/C=C/C=C/C=C/1C [zotarolimus]
In short: as §1

idasanutlin = compound: COc1cc(C(=O)O)ccc1NC(=O)[C@@H]1N[C@@H](CC(C)(C)C)[C@](C#N)(c2ccc(Cl)cc2F)[C@H]1c1cccc(Cl)c1F [idasanutlin]
In short: as §1

alisertib = compound: COc1cc(Nc2ncc3c(n2)-c2ccc(Cl)cc2C(c2c(F)cccc2OC)=NC3)ccc1C(=O)O [alisertib]
In short: as §1

[2] = compound: COc1cc2nc(-c3cc(F)ccc3O)nc(N[C@@H]3CNC[C@H]3C(C)(C)O)c2cc1OC
In short: as §1

gefitinib = compound: COc1cc2ncnc(Nc3ccc(F)c(Cl)c3)c2cc1OCCCN1CCOCC1 [gefitinib]
In short: as §1

[3] = compound: COc1cccc2cc(-c3nc([C@H]4CC[C@H](C(=O)O)CC4)n4ncnc(N)c34)[nH]c12
In short: as §1

lapatinib = compound: CS(=O)(=O)CCNCc1ccc(-c2ccc3ncnc(Nc4ccc(OCc5cccc(F)c5)c(Cl)c4)c3c2)o1 [lapatinib]
In short: as §1

pictilisib = compound: CS(=O)(=O)N1CCN(Cc2cc3nc(-c4cccc5[nH]ncc45)nc(N4CCOCC4)c3s2)CC1 [pictilisib]
In short: as §1

[4] = compound: CS(=O)(=O)c1ccc(-c2cnc(N)c(C(=O)Nc3ccccc3)n2)cc1
In short: as §1

crizotinib = compound: C[C@@H](Oc1cc(-c2cnn(C3CCNCC3)c2)cnc1N)c1c(Cl)ccc(F)c1Cl [crizotinib]
In short: as §1

[5] = compound: C[C@@H]1COCCN1C2=NC(=NC(=C2)C3(CC3)S(=O)(=O)C)C4=C5C=CNC5=CC=C4
In short: as §1

[6] = compound: C[C@H](C1=CC=C(C=C1)C(=O)NC2=C3C=CNC3=NC=C2)N
In short: as §1

duvelisib = compound: C[C@H](Nc1ncnc2nc[nH]c12)c1cc2cccc(Cl)c2c(=O)n1-c1ccccc1 [duvelisib]
In short: as §1

gandotinib = compound: Cc1cc(Nc2cc(CN3CCOCC3)c3nc(C)c(Cc4ccc(Cl)cc4F)n3n2)n[nH]1 [gandotinib]
In short: as §1

tozasertib = compound: Cc1cc(Nc2cc(N3CCN(C)CC3)nc(Sc3ccc(NC(=O)C4CC4)cc3)n2)n[nH]1 [tozasertib]
In short: as §1

[7] = compound: Cc1cc(SCc2sc(-c3ccc(C(F)(F)F)cc3)nc2C)ccc1OCC(=O)O
In short: as §1

doramapimod = compound: Cc1ccc(-n2nc(C(C)(C)C)cc2NC(=O)Nc2ccc(OCCN3CCOCC3)c3ccccc23)cc1 [doramapimod]
In short: as §1

ispinesib = compound: Cc1ccc(C(=O)N(CCCN)[C@@H](c2nc3cc(Cl)ccc3c(=O)n2Cc2ccccc2)C(C)C)cc1 [ispinesib]
In short: as §1

Measured: log2 fold change

RPL23A (UniProt P62750)
inactive: [1] -0.032 | filanesib 0.408 | zotarolimus 0.033 | idasanutlin 0.184 | alisertib -0.09 | [2] -0.145 | gefitinib -0.056 | [3] -0.256 | lapatinib 0.129 | pictilisib -0.192 | [4] -0.102 | crizotinib 0.015 | [5] -0.657 | [6] 0.338 | duvelisib -0.236 | gandotinib 0.304 | tozasertib 0.013 | [7] 0.013 | doramapimod 0.189 | ispinesib -0.143

RPL32 (UniProt P62910)
inactive: [1] -0.037 | filanesib 0.477 | zotarolimus 0.055 | idasanutlin 0.255 | alisertib -0.109 | [2] -0.18 | gefitinib -0.093 | [3] -0.378 | lapatinib 0.312 | pictilisib -0.581 | [4] -0.108 | crizotinib 0.036 | [5] -0.801 | [6] 0.517 | duvelisib -0.298 | gandotinib 0.12 | tozasertib 0.043 | [7] 0.065 | doramapimod 0.207 | ispinesib -0.107

RPL3 (UniProt P39023)
inactive: [1] -0.131 | filanesib 0.788 | zotarolimus 0.01 | idasanutlin 0.337 | alisertib -0.185 | [2] -0.141 | gefitinib -0.065 | [3] -0.48 | lapatinib 0.344 | pictilisib -0.277 | [4] -0.044 | crizotinib 0.066 | [5] -1.2 | [6] 0.665 | duvelisib -0.318 | gandotinib 0.393 | tozasertib 0.062 | [7] 0.097 | doramapimod 0.371 | ispinesib -0.27

RPS24 isoform 4 (UniProt P62847)
inactive: [1] -0.075 | filanesib 0.313 | zotarolimus -0.034 | idasanutlin 0.12 | alisertib -0.072 | [2] -0.055 | gefitinib -0.029 | [3] -0.22 | lapatinib 0.111 | pictilisib -0.128 | [4] -0.005 | crizotinib 0.051 | [5] -0.397 | [6] 0.293 | duvelisib -0.153 | gandotinib 0.232 | tozasertib 0.016 | [7] 0.002 | doramapimod 0.165 | ispinesib -0.185

RPL34 (UniProt P49207)
inactive: [1] -0.084 | filanesib 0.437 | zotarolimus 0.018 | idasanutlin 0.347 | alisertib -0.221 | [2] -0.188 | gefitinib -0.052 | [3] -0.47 | lapatinib 0.295 | pictilisib -0.239 | [4] -0.281 | crizotinib 0.098 | [5] -1.24 | [6] 0.647 | duvelisib -0.322 | gandotinib 0.503 | tozasertib 0.054 | [7] 0.107 | doramapimod 0.318 | ispinesib -0.276

RPS27A (UniProt P62979)
inactive: [1] -0.084 | filanesib 0.215 | zotarolimus 0.009 | idasanutlin 0.129 | alisertib -0.041 | [2] -0.066 | gefitinib -0.076 | [3] -0.185 | lapatinib -0.006 | pictilisib -0.13 | [4] 0.05 | crizotinib 0.053 | [5] -0.229 | [6] 0.088 | gandotinib 0.347 | [7] 0 | doramapimod -0.049 | ispinesib -0.047

RPP21 isoform 4 (UniProt Q9H633)
inactive: [1] 0.05 | filanesib -0.055 | zotarolimus 0.15 | idasanutlin 0.082 | alisertib 0.004 | [2] -0.051 | gefitinib -0.047 | [3] 0.026 | lapatinib -0.003 | pictilisib -0.234 | [4] 0.049 | crizotinib -0.018 | [5] -0.018 | [6] -0.095 | duvelisib -0.057 | gandotinib 0.112 | tozasertib 0.066 | [7] 0.006 | doramapimod 0.032 | ispinesib 0.081

RPL36AL (UniProt Q969Q0)
inactive: [1] 0.27 | filanesib 0.505 | zotarolimus 0.09 | idasanutlin 0.178 | alisertib -0.164 | [2] -0.218 | gefitinib -0.028 | [3] -0.305 | lapatinib 0.303 | pictilisib -0.25 | [4] -0.025 | crizotinib -0.191 | [5] -0.41 | [6] 0.298 | duvelisib -0.259 | gandotinib 0.39 | tozasertib 0.048 | [7] 0.032 | doramapimod 0.042 | ispinesib -0.054

RPS6KA2 isoform 2 (UniProt Q15349)
inactive: [1] -0.023 | filanesib -0.006 | zotarolimus 0.016 | idasanutlin -0.033 | alisertib -0.052 | [2] -0.259 | gefitinib -0.078 | [3] 0.001 | lapatinib -0.011 | pictilisib -0.106 | [4] 0.026 | crizotinib -0.148 | [5] 0.128 | [6] -0.057 | gandotinib -0.048 | [7] 0.063 | doramapimod -0.057 | ispinesib -0.058

RPL39P5 (UniProt Q59GN2)
inactive: [1] -0.021 | filanesib 0.635 | zotarolimus -0.072 | idasanutlin 0.199 | alisertib -0.308 | [2] -0.231 | gefitinib -0.047 | [3] -0.16 | lapatinib 0.216 | pictilisib -0.104 | [4] 0.042 | crizotinib -0.003 | [5] -0.648 | [6] 0.345 | duvelisib -0.321 | gandotinib 0.295 | tozasertib 0.044 | [7] -0.076 | doramapimod 0.186 | ispinesib -0.127

RPL28 (UniProt P46779)
inactive: [1] -0.132 | filanesib 0.688 | zotarolimus 0.014 | idasanutlin 0.339 | alisertib -0.195 | [2] -0.091 | gefitinib -0.136 | [3] -0.505 | lapatinib 0.323 | pictilisib -0.202 | [4] -0.101 | crizotinib 0.045 | [5] -1.24 | [6] 0.597 | duvelisib -0.317 | gandotinib 0.449 | tozasertib 0.053 | [7] 0.05 | doramapimod 0.361 | ispinesib -0.323

RPLP0 (UniProt P05388)
inactive: [1] -0.097 | filanesib 0.614 | zotarolimus 0.002 | idasanutlin 0.27 | alisertib -0.168 | [2] -0.194 | gefitinib -0.074 | [3] -0.382 | lapatinib 0.364 | pictilisib -0.148 | [4] -0.163 | crizotinib 0.082 | [5] -1.04 | [6] 0.581 | duvelisib -0.293 | gandotinib 0.395 | tozasertib 0.019 | [7] 0.048 | doramapimod 0.382 | ispinesib -0.257

RPA1 (UniProt P27694)
inactive: [1] 0.053 | filanesib -0.006 | zotarolimus 0.018 | idasanutlin -0.042 | alisertib 0.027 | [2] 0.049 | gefitinib -0.001 | [3] -0.133 | lapatinib 0.006 | pictilisib -0.088 | [4] -0.028 | crizotinib -0.019 | [5] -0.199 | [6] 0.036 | gandotinib -0.103 | [7] 0.022 | doramapimod -0.05 | ispinesib 0.004

RPLP2 (UniProt P05387)
inactive: [1] -0.099 | filanesib 0.606 | zotarolimus 0.138 | idasanutlin 0.272 | alisertib -0.107 | [2] -0.256 | gefitinib -0.095 | [3] -0.315 | lapatinib 0.256 | pictilisib -0.159 | [4] -0.2 | crizotinib 0.105 | [5] -0.831 | [6] 0.559 | duvelisib -0.336 | gandotinib 0.377 | tozasertib 0.045 | [7] 0.062 | doramapimod 0.374 | ispinesib -0.291

Reprinted at random: 2 entries already listed
RPS27A (UniProt P62979)
inactive: [1] -0.084 | filanesib 0.215 | zotarolimus 0.009 | idasanutlin 0.129 | alisertib -0.041 | [2] -0.066 | gefitinib -0.076 | [3] -0.185 | lapatinib -0.006 | pictilisib -0.13 | [4] 0.05 | crizotinib 0.053 | [5] -0.229 | [6] 0.088 | gandotinib 0.347 | [7] 0 | doramapimod -0.049 | ispinesib -0.047

RPL28 (UniProt P46779)
inactive: [1] -0.132 | filanesib 0.688 | zotarolimus 0.014 | idasanutlin 0.339 | alisertib -0.195 | [2] -0.091 | gefitinib -0.136 | [3] -0.505 | lapatinib 0.323 | pictilisib -0.202 | [4] -0.101 | crizotinib 0.045 | [5] -1.24 | [6] 0.597 | duvelisib -0.317 | gandotinib 0.449 | tozasertib 0.053 | [7] 0.05 | doramapimod 0.361 | ispinesib -0.323

Carrying on.

RPS15A (UniProt P62244)
inactive: [1] -0.074 | filanesib 0.332 | zotarolimus -0.021 | idasanutlin 0.174 | alisertib -0.075 | [2] -0.101 | gefitinib -0.062 | [3] -0.252 | lapatinib 0.179 | pictilisib -0.143 | [4] -0.093 | crizotinib 0.046 | [5] -0.584 | [6] 0.359 | duvelisib -0.225 | gandotinib 0.356 | tozasertib 0.036 | [7] 0.037 | doramapimod 0.237 | ispinesib -0.192

RPIA (UniProt P49247)
inactive: [1] -0.017 | filanesib -0.032 | zotarolimus -0.024 | idasanutlin -0.019 | alisertib -0.036 | [2] 0.006 | gefitinib 0.012 | [3] 0.091 | lapatinib 0.007 | pictilisib 0.051 | [4] -0.023 | crizotinib 0.039 | [5] 0.005 | [6] -0.077 | duvelisib 0.065 | gandotinib 0.006 | tozasertib -0.012 | [7] -0.014 | doramapimod 0.025 | ispinesib 0.019
